No constants are given. Whether binding was seen depends on the method and setting. Some binding calls cover weakened binding; strength is not graded here. Sequences can lack the tags named with a protein.
Molecular target: T1, LOX catalytic domain (catalytic domain of human LOX, 169-417) (human) (UniProt P28300)
T1 sequence: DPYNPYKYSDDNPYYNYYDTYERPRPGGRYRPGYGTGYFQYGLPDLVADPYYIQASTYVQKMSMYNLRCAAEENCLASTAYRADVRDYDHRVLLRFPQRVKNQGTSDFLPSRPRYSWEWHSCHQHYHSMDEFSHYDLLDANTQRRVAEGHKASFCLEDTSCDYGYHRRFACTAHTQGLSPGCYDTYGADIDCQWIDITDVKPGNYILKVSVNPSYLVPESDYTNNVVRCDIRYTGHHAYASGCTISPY
Experiment: ELISA, plate coated with LOX catalytic domain, bound protein detected with peroxidase-conjugated anti-human antibody

binding: binds
B1: Fc-LPD N346, 362, 409Q (Fc fusion)
chain: APPAAGQQQPPREPPAAPGAWRQQIQWENNGQVFSLLSLGSQYQPQRRRDPGAAVPGAAQASAQQPRTPILLIRDQRTAAARTRTAGSSGVTAGRPRPTARHWFQAGYSTSRAREAGASRAEQQTAPGEVPALSNLRPPSRVDGMVGD
